What all share (assay): co-IP; intact Gc induced with IPTG for the FLAG-tagged protein were exposed to 1,000 μg/mL human lysozyme or vehicle for 3 hr at 37°C, washed, lysed (1% Triton-X-100, 150 mM NaCl, 2 mM EDTA, 20 mM Tris-HCl pH 7.5); lysate on M2 FLAG Affinity Gel 2 hr at 4°C, six washes; immunoblot for lysozyme and FLAG; only the binder purified
Background: Immunoblotting shows a protein as a band on a membrane.

Assay [1] addresses LtgD-FLAG (Neisseria gonorrhoeae (strain MS11)).
Assay [2] addresses Ng_1063(S83A)-FLAG (Neisseria gonorrhoeae (strain MS11)).
The target of assay [3] is Ng_1063(K103A)-FLAG (Neisseria gonorrhoeae (strain MS11)).
Assay [4] has as its target LtgA-FLAG (Neisseria gonorrhoeae (strain MS11)).
For assay [5], the target named is Ng_1981(WT)-FLAG (Neisseria gonorrhoeae (strain MS11)).
Assay [6] concerns the target Ng_1063(WT)-FLAG (Neisseria gonorrhoeae (strain MS11)).

These are yes or no findings as the source states them, for the method shown. In cells and extracts the contact can be indirect. For part of these data: Binding calls can cover weak binding; strength is not graded here.

B1: human lysozyme (enzyme, UniProt P61626 19-148)
chain: KVFERCELARTLKRLGMDGYRGISLANWMCLAKWESGYNTRATNYNAGDRSTDYGIFQINSRYWCNDGKTPGAVNACHLSCSALLQDNIADAVACAKRVVRDPQGIRAWVAWRNRCQNRDVRQYVQGCGV
For B1, the binding entry is reported as “no binding (tested: 1,000 μg/mL human lysozyme)” in assay [1]; “binds” in assay [2]; “binds” in assay [3]; “no binding (tested: 1,000 μg/mL human lysozyme)” in assay [4]; “binds” in assay [5]; “binds” in assay [6].

(Values after publication PMC6033460.)
